Assay results: PubChem BioAssay AID504842 (National Center for Advancing Translational Sciences (NCATS), 2011)
Out of some 330,000 compounds screened, about 100 (0.03%) were called active. Inconclusive results, whose numbers are uncertain, are shown with a selection of clear calls. The call rests on the fitted dose curve; in most records, active means well fitted inhibition curve with a large enough effect; inconclusive means small, poorly fitted or top-dose-only effect; inactive means flat fitted curve, though single readings scatter. Potencies of inconclusive entries are doubtful fits and often do not repeat.

Tested on: Chaperonin Mm-Cpn (Methanococcus maripaludis)
Assay: Inhibitors of TCP-1 ring complex (TRiC) of Methanococcus maripaludis (MmCpn): qHTS; further: nearly all actives have a fitted effect of over 80% in size;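 on Potency: enzyme at 25 nM with ATP substrate at 10 µM during the reaction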
Details: purified Mm-Cpn ATPase, ADP Transcreener TR-FRET; activity, negative = inhibition: at the top concentration
Procedure, shortened: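 TR-FRET (320 nm excitation; 590 and 665 nm emission) reports ADP made from 10 uM ATP by 25 nM enzyme; compounds were preincubated 10 min, reaction run 30 min, both at 37°C.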
On the % scale 0 is the no-effect control and ±100 the full control effect; potency means the concentration at half of the fitted maximal effect.

Potency, inconclusive:
Cc1cc([N+](=O)[O-])ccc1NC(=O)c1cc2ccccc2o1 224 µM [inhibitor, partial curve, poor fit]
COC(=O)c1cccc(Nc2ncnc3sccc23)c1 56.2 µM [inhibitor, single point]
CCN(CC)C(=O)CSc1nc(-c2cccs2)cc(-c2cccs2)c1C#N 79.4 µM [inhibitor, single point]
COc1ccc2nc(C)cc(Nc3ccc(C)cc3)c2c1 14.1 µM [inhibitor, single point]
Cc1ccc(S(=O)(=O)CCC(=O)OCc2cc(C)ccc2C)cc1 17.8 µM [inhibitor, single point]
CCn1c(SCC(=O)NCCc2ccc(OC)c(OC)c2)nc2c1c(=O)n(C)c(=O)n2C 25.1 µM [inhibitor, single point]
S=C(Nc1ccccc1)N1CCN(C(=S)Nc2ccccc2)CC1 25.1 µM [inhibitor, single point]
CCc1ccc(N=C2NC(=O)/C(=C/c3ccc(OCC(=O)O)c(OC)c3)S2)cc1 22.4 µM [inhibitor, single point]
CCCC1=C(C(=O)OCC)C(c2ccc(O)cc2)n2ncnc2N1 (stereo not given) 89.1 µM [inhibitor, single point]
CC(=O)Oc1ccc(C(=O)Cc2ccc3ccccc3n2)c(O)c1C 316 µM [inhibitor, partial curve, poor fit]
CCOc1ccccc1NC(=S)N1CCN(c2nc(-c3ccc(F)cc3)cs2)CC1 112 µM [inhibitor, partial curve, poor fit]
O=S(=O)(c1cccc(-c2n[nH]c(=S)o2)c1)N1CCOCC1 282 µM [inhibitor, partial curve, poor fit]
COc1ccccc1-c1nc(SCc2ccccn2)n[nH]1 89.1 µM [inhibitor, single point]
CC[C@@]12C(=O)N(c3cccc(F)c3)C(=O)N1[C@H](c1ccc(OC)cc1)[C@@H]1C(=O)N(C(C)(C)C)C(=O)[C@@H]12 17.8 µM [inhibitor, single point]
O=S(=O)(NCCc1ccccc1)c1cccs1 50.1 µM [inhibitor, single point]
CN(C)c1ccc(N=Cc2ccco2)cc1 251 µM [inhibitor, partial curve, poor fit]
O=S(=O)(c1ccc(Cl)s1)N1CCN(C/C=C/c2ccccc2)CC1 100 µM [inhibitor, single point]
CCC(O)c1cc2c(cc1NC(=O)c1ccc(C)cc1)OCCO2 (stereo not given) 14.1 µM [inhibitor, single point]
O=C1NC(c2ccc3c(c2)OCO3)Oc2ccccc21 (stereo not given) 89.1 µM [inhibitor, single point]
CCOC(=O)c1nn(-c2ccc(F)cc2)c(=O)cc1OCC(=O)Nc1cccc(C)c1 100 µM [inhibitor, single point]
O=C(Nc1c(Cl)cc(Cl)cc1-c1nc2ccccc2s1)c1ccc(Br)o1 89.1 µM [inhibitor, partial curve, poor fit]
Cc1cc(C)c(S(=O)(=O)c2ccc(F)cc2C)c(Cl)n1 11.2 µM [inhibitor, single point]
O=C1CCCN2N=C(SCC(=O)N3N=C(c4ccc(Br)cc4)CC3c3ccc(F)cc3)SC2=N1 (stereo not given) 398 µM [inhibitor, partial curve, poor fit]
COc1ccc(C(=O)Nc2cc(C(=O)c3ccccc3)c(C)oc2=O)cc1 79.4 µM [inhibitor, single point]
COc1ccc(Br)cc1-c1nc(CCl)cs1 282 µM [inhibitor, partial curve, poor fit]

activity, negative = inhibition, inactive:
COc1cccc(-c2nnc3sc(-c4ccccn4)nn23)c1 -0.381%
CC(C)(C)c1ccc(OCC(O)CN2CCN(c3ccccn3)CC2)cc1 (stereo not given) 0.903%
CCOC(=O)CCCSc1nc(-c2ccc3c(c2)OCO3)cc(C(F)(F)F)c1C#N -7.97%
CC/C(=N\NC(C)=O)c1ccc(OC(F)F)cc1 1.22%
Cc1cccc(-n2cc(CN(C)Cc3nccn3C)c(-c3cccc(F)c3)n2)c1 0.148%
Cc1ccc(N(c2ncnc(N)c2[N+](=O)[O-])C2CCCCC2)cc1 -0.0551%
COc1ccc2nc(NC(=O)Nc3ccccc3)sc2c1 1.68% [at 15.4 µM]
Cc1ccc(S(=O)(=O)Oc2ccc(/C=C(/NC(=O)c3ccccc3)C(=O)Nc3ccccc3)cc2)cc1 3.14%
Cc1n[nH]c(=O)c2c(NC(=O)CSc3nnnn3-c3ccc(O)cc3)oc(C)c12 1.35%
COc1cc2c(cc1OC)CN(C(=O)c1ccc(OC)c([N+](=O)[O-])c1)CC2 1.76%
CN1CCN(C(=O)CCCN2C(=O)/C(=C/c3ccccc3)SC2=S)CC1 -0.709%
O=C(CSCc1cc(=O)n2nc(C3CC3)sc2n1)Nc1ccccc1Cl 0.506%
CCOc1ccc(CNC(=O)Cn2nc(C)c3c(C)n(-c4ccc(C)cc4)nc3c2=O)cc1 -0.045%
CCn1cc(C(=O)NCc2cccc(F)c2)c(=O)c2cc(F)c(N3CCN(C(=O)c4ccco4)CC3)cc21 0.189%
CN(C)c1ccc(C(=O)N2CCNC(=O)C2CC(=O)Nc2ccc(F)cc2)cc1 (stereo not given) -1.18%
Cc1ccc(S(=O)(=O)N2CCC[C@H]2C(=O)OCC(=O)c2ccc3c(c2)NC(=O)CO3)cc1 0.948%
COc1ccc(NC(=O)CCCC(=O)c2ccccc2)cc1OC 0.186%
CCCCC1=CC2=C(c3ccco3)C(=O)C(C)(OC(=O)c3ccc(OC)cc3)C(=O)C2=CN1Cc1ccco1 (stereo not given) -1.23%
Cc1nc2ccc(NS(=O)(=O)c3ccc(C)c(C)c3)cc2s1 -2.42%
O=C(N/N=C/c1cccc(Oc2ccccc2)c1)c1ccncc1 -2.35%

Three records picked at random from those above, as already listed:
activity, negative = inhibition, inactive:
CCCCC1=CC2=C(c3ccco3)C(=O)C(C)(OC(=O)c3ccc(OC)cc3)C(=O)C2=CN1Cc1ccco1 (stereo not given) -1.23%
COc1ccc2nc(NC(=O)Nc3ccccc3)sc2c1 1.68% [at 15.4 µM]
CCOC(=O)CCCSc1nc(-c2ccc3c(c2)OCO3)cc(C(F)(F)F)c1C#N -7.97%
